Source: PubChem BioAssay AID2685 (National Center for Advancing Translational Sciences (NCATS), 2010)
The list shows a part of the results. Shown are side measurements of this screen, not its main read-out; they come without a call. Compounds called inactive in the main read-out are mostly missing here. The note in brackets gives the kind of curve behind each potency; many fits are weak.

Experiment: qHTS Assay for Lipid Storage Modulators in Drosophila S3 Cells;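 for cell number change: cells counted by Cell Tracker Red CMTPX staining in the red channel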
Details: BODIPY lipid droplet fluorescence, 18-24 h; for cell number change: measured here: cell count max response, cells fed with added oleic acid
Procedure, shortened: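 Drosophila S3 cells loaded with oleic acid (400 uM, as added) and compounds at several concentrations; lipid droplets imaged by 488-nm laser-scanning cytometry, 500–530 nm intensity and object ratio to cell channel. Percent activity normalized to 20 uM Triacsin C.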

[1] = measured here: cell number channel AC50, cells fed with added oleic acid
[2] = measured here: lipid fluorescence (Fed channel) AC50, cells fed with added oleic acid

Row | Compound | cell number change | AC50 [1] | AC50 [2]
1 | O=S(=O)(c1ccccc1)N(F)S(=O)(=O)c1ccccc1 | -10.5% | 0.651 µM [falling, single point] | 0.461 µM [falling, full curve, poor fit]
2 | CSc1ncc(CN2CCc3c([nH]c4ccccc34)C2c2cccc(O)c2)cn1 (configuration not stated) | -33.8% | 29.1 µM [falling, single point] | 3.26 µM [falling, partial curve]
3 | Cn1c(C(=O)c2ccncc2)cc2ccccc21 | 60.6% | 16.4 µM [rising, single point] | 0.00461 µM [falling, full curve, poor fit]
4 | CCOc1ccc(S(=O)(=O)Nc2cccc(C(=O)N3CCN(c4cccc(OC)c4)CC3)c2)cc1 | 126% | 18.4 µM [rising, single point] | 
5 | CN1CC(=O)N(CC(=O)Nc2ccc3c(c2)CCC3)C1=O | 22.6% |  | 6.51 µM [falling, single point]
6 | O=C(NCc1ccco1)/C(=C/c1ccccc1)NC(=O)c1ccco1 | 4.78% |  | 0.58 µM [rising, single point]
7 | C=CCNC(=O)COC(=O)c1cccnc1Nc1ccccc1F | 18.8% | 3.26 µM [rising, single point] | 6.51 µM [rising, partial curve, poor fit]
8 | COc1ccc(N(C(=O)c2snc(C(N)=O)c2N)C(C(=O)NCc2ccccc2)c2ccc(O)cc2)cc1OC (configuration not stated) | 24.2% |  | 0.13 µM [rising, full curve, poor fit]
9 | c1ccc(-n2c(-c3ccncc3)nnc2N2CCOCC2)cc1 | -9.17% |  | 29.1 µM [falling, single point]
10 | Cc1ccccc1NC(=O)COC(=O)c1ccc(S(=O)(=O)N2CCCCCC2)cc1 | 23.3% |  | 
11 | COc1ccc(CCN2C(=O)CC(NC34CC5CC(CC(C5)C3)C4)C2=O)cc1OC (configuration not stated) | -4.35% |  | 6.51 µM [falling, single point]
12 | CSc1cccc(NC(=O)COC(=O)c2ccccn2)c1 | 6.75% | 0.58 µM [falling, full curve] | 0.651 µM [falling, full curve]
13 | CC1(C)NC(C)(C)C(O)(C(N)=O)C1=O (configuration not stated) | -17.8% |  | 0.231 µM [falling, full curve, poor fit]
14 | Clc1cc2nc[nH]c2cc1Cl | 35.4% | 18.4 µM [rising, single point] | 23.1 µM [rising, single point]
15 | Fc1ccccc1N1CCN(C2CCN(Cc3c[nH]c4ccccc34)CC2)CC1 | 83.8% | 18.4 µM [rising, partial curve, poor fit] | 18.4 µM [rising, partial curve]
16 | Cn1c(N2CCC(C(N)=O)CC2)nc2c1c(=O)n(Cc1cccc(Br)c1)c(=O)n2C | 1.2% |  | 
17 | Cn1c(=O)[nH]c(=O)c2c1nc(Sc1ncccn1)n2CCCc1ccccc1 | -5.03% |  | 6.51 µM [rising, partial curve]
18 | CC(=O)NC(CC(=O)N(C)Cc1c(F)cccc1Cl)c1ccccc1 (configuration not stated) | 3.73% | 0.00461 µM [falling, full curve, poor fit] | 1.3 µM [falling, full curve, poor fit]
19 | COC(=O)c1c(NC(=O)Cn2cnc([N+](=O)[O-])n2)sc2c1CCC(C)C2 (configuration not stated) | 12.1% | 4.11 µM [falling, single point] | 

Row | Compound | cell number change | AC50 [1] | AC50 [2]
20 | Cc1ccc(S(=O)(=O)Nc2ccc(N3CCOCC3)cc2)cc1C | -5.71% |  | 
21 | COc1ccccc1NC(=O)Cn1c(=O)n(CCc2c[nH]c3ccccc23)c(=O)c2cccnc21 | -10.4% |  | 0.461 µM [rising, full curve, poor fit]
22 | Cc1ccc(C2=N/C(=C\c3cccnc3)C(=O)O2)cc1 | 50% | 16.4 µM [rising, single point] | 
23 | COc1ccc(C(=O)OCC(=O)Nc2ccc(N3CCOCC3)cc2)cc1 | 24.5% |  | 29.1 µM [rising, single point]
24 | CC(OC(=O)c1cc(=O)[nH]c2ccccc12)C(=O)N1C(C)CCCC1C (configuration not stated) | 10.6% | 6.51 µM [falling, single point] | 
25 | Cc1nnc(NC(=O)c2c(F)cccc2F)s1 | 5.39% |  | 6.51 µM [falling, partial curve, poor fit]
26 | COc1ccc(Cn2c(SCc3ccccc3C)nc3cc(OC)c(OC)cc3c2=N)cc1 | -87.2% |  | 29.1 µM [falling, single point]
27 | COc1ccccc1NS(=O)(=O)c1ccc(N/N=C(\C)C(C)C)c([N+](=O)[O-])c1 | -37.6% | 18.4 µM [falling, single point] | 18.4 µM [falling, single point]
28 | CCC1=NN(C(=O)COc2ccccc2)C(O)(c2ccc(Br)cc2)C1 (configuration not stated) | -30% |  | 
29 | CCCn1c(C(O)c2cccc(OC)c2)nc2ccccc21 (configuration not stated) | -1.4% |  | 
30 | CCOc1ccccc1NC(=O)CCN(c1ccc(C)cc1)S(=O)(=O)c1ccccc1 | -21.6% |  | 14.6 µM [falling, partial curve, poor fit]
31 | CSC1=N/C(=C/c2cccnc2)C(=O)N1Cc1ccccc1 | 0.209% | 0.58 µM [rising, full curve, poor fit] | 
32 | CC[N+](C)(CC)CCC/C(=N/O)C(O)(c1ccccc1)c1ccccc1 | -18% |  | 0.082 µM [falling, full curve]
33 | O=C(/C=C/c1ccco1)Nc1ccc2c(c1)OCCO2 | 7.04% |  | 0.58 µM [falling, single point]
34 | CN1CCN(C(=O)CCc2nc3ccccc3n2-c2ccccc2)CC1 | 0.829% |  | 16.4 µM [falling, single point]
35 | CC(C)N(CCNCC(O)COc1ccc(C(C)(C)c2ccccc2)cc1)C(C)C (configuration not stated) | 8.61% |  | 
36 | COc1cc2c(C#N)c(N3CCc4ccccc4C3)nc(N)c2c(N)n1 | -86.3% | 29.1 µM [falling, single point] | 
37 | COc1ccccc1NC(=O)CNC(=O)Cn1c(C)cc2ccccc2c1=O | 32.5% |  | 29.1 µM [rising, single point]

Three compounds from above with just cell number change.
Row,Compound,cell number change
26,COc1ccc(Cn2c(SCc3ccccc3C)nc3cc(OC)c(OC)cc3c2=N)cc1,-87.2%
27,COc1ccccc1NS(=O)(=O)c1ccc(N/N=C(\C)C(C)C)c([N+](=O)[O-])c1,-37.6%
28,CCC1=NN(C(=O)COc2ccccc2)C(O)(c2ccc(Br)cc2)C1 (configuration not stated),-30%
